Assay results as given in EP1061946B1, “GLP-1 DERIVATIVES WITH HELIX-CONTENT EXCEEDING 25 %, FORMING PARTIALLY […]-LIKE AGGREGATES” (NOVO NORDISK A/S, priority 1998, dated 2004).
Not every detail of the peptide structures is certain; ends, links or a residue may be inferred.

Test: Circular Dichroism (CD) at 222 nm as a function of peptide concentration (alpha-helix content)
Format: physicochemical
Details: for helix content: summary statement; for content of α-helix: 10 mM tris buffer, pH 8, 23°C

In the case of CC[C@H](C)[C@H](NC(=O)[C@H](Cc1ccccc1)NC(=O)[C@H](CCC(=O)O)NC(=O)[C@H](CCCCN)NC(=O)[C@H](C)NC(=O)[C@H](C)NC(=O)[C@H](CCC(N)=O)NC(=O)CNC(=O)[C@H](CCC(=O)O)NC(=O)[C@H](CC(C)C)NC(=O)[C@H](Cc1ccc(O)cc1)NC(=O)[C@H](CO)NC(=O)[C@H](CO)NC(=O)[C@@H](NC(=O)[C@H](CC(=O)O)NC(=O)[C@H](CO)NC(=O)[C@@H](NC(=O)[C@H](Cc1ccccc1)NC(=O)[C@@H](NC(=O)CNC(=O)[C@H](CCC(=O)O)NC(=O)[C@H](C)NC(=O)[C@@H](N)Cc1c[nH]cn1)[C@@H](C)O)[C@@H](C)O)C(C)C)C(=O)N[C@@H](C)C(=O)N[C@@H](Cc1c[nH]c2ccccc12)C(=O)N[C@@H](CC(C)C)C(=O)N[C@H](C(=O)N[C@@H](CCCCN)C(=O)NCC(=O)N[C@@H](CCCNC(=N)N)C(=O)NCC(=O)O)C(C)C [GLP-1(7-37)], the helix content (at 500 µM concentration, in parallel with peptide self-association) is reported as 30-35%, the helix content (low peptide concentration, before the increase with concentration) is reported as 10-15% and the “content of α-helix” value (lower end of the 25 to 1000 µM concentration range (25 µM), read from Figure 1 (CD value of -1 = 10% α-helix)) is reported as “about 15%”. For the same compound, the “content of α-helix” value (upper end of the 25 to 1000 µM concentration range (1000 µM), in parallel with formation of higher oligomers) was 30-35%.
